Library screen at single concentrations

Source: ChEMBL document CHEMBL3988442, “University of Dundee, Small-Polar-MMV Screening Library” (2021).

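Whole-cell growth test on Mycobacterium tuberculosis, read after 4 days in a medium based on cholesterol and the lipid DPPC; the read-out is not stated. Compounds at 50 µM. Direction is inferred from retests: higher values go with more growth inhibition. Of about 69,000 compounds tested this way, about 370 (0.54%) reached 50% or more in at least one test.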

The filed quantity is “Percent Effect” (%).
The record does not define 0% and 100%; most values in the screen are far below 50% and negative numbers occur (in some assays of this library far below -100).
Compounds were drawn at random from those tested, without regard to their results.
Two or more numbers in one place are separate tests of the same structure; such repeats can differ widely.

Result for COc1cc(N2CCOC(c3ccc(F)cc3)C2)ncn1 (stereo unspecified) was 3.17%.
Result for O=C(Cc1cccc(F)c1)NCCNCC1CNc2ccnn2C1 (stereo unspecified) was 11.09%.
Result for COC(=O)C1CN(CC(=O)Nc2cccc(OC)c2)c2ccccc21 (stereo unspecified) was 3.599% & -8.757%.
Result for CC(C)C(=O)N(C)Cc1nnc2n1CCCCC2 was -26.19%.
Result for Cc1nc2c(c(N3CCC(O)(CN4CCCC4)CC3)n1)CCN(C)CC2 was 13.78%.
Result for O=C1NCCc2c1sc1ccc(C(=O)N3CC[C@H](CO)[C@H](O)C3)cc21 was -19.23% & -1.03%.
Result for O=C(NC1CCCCNC1=O)c1cc2ccccc2[nH]c1=O (stereo unspecified) was -21.13%.
Result for CCOc1ncccc1CNS(=O)(=O)c1ccc2c(c1)CCCC(=O)N2 was 18.13%.
Result for Cc1nc(C)n(CC2CCCN2CCOc2ccc(F)cc2)n1 (stereo unspecified) was 2.555%.
Result for O=C(NCC(O)COc1cccc(F)c1)C1(c2ccc(F)cc2)CC1 (stereo unspecified) was 10.45%.
Result for Cn1cc(CC(=O)N2CCCC(c3cc(C(F)(F)F)[nH]n3)C2)cn1 (stereo unspecified) was -3.274%.
Result for COc1ccc(OC)c(CNC2CCCN(c3cccnn3)C2)c1 (stereo unspecified) was -5.052%.
Result for O=C(Nc1cccc(OCc2cccc(F)c2)c1)C1COCCO1 (stereo unspecified) was -13.51%.
Result for Cc1noc(C)c1CN(Cc1cccnc1)C1CN2CCC1CC2 (stereo unspecified) was -11.46%.
Result for Cn1cnnc1C1CCCN(C(=O)COc2ccccc2Cl)C1 (stereo unspecified) was 9.995%.
Result for Cc1cccc(NC(=O)CN2C(=O)CC(C)(C)c3ccccc32)n1 was 0.9218%.
Result for [H][C@@]12CCN(Cc3scnc3C)C[C@@]1([H])O[C@@H](c1ccncn1)C2 was 5.887%.
Result for CN(C)C(=O)CNC(=O)c1cc2c(s1)CCN2S(C)(=O)=O was -17.16%.
Result for Cc1ccn2ncc(C(=O)N3CCCC(c4noc(C)n4)C3)c2n1 (stereo unspecified) was -16.37%.
Result for CN(CCCc1ccccc1)C(=O)c1cn2c(n1)CNCC2 was 3.417%.
Result for Cc1nnc(CN(Cc2ccc3c(c2)OCO3)C2CCC(C)CC2)o1 (stereo unspecified) was 29.43%.
Result for CCC1=NC(SCC(=O)c2ccccc2)c2cc(CC)sc2N1 (stereo unspecified) was 22.55%.
Result for N#CCc1ccc(OCC(=O)NS(=O)(=O)c2ccc(Br)s2)cc1 was -9.357%.
Result for CCC1COCCN1C(=O)NCc1nccn1Cc1ccccc1 (stereo unspecified) was 5.224%.
Result for [H][C@@]12COC[C@]1(CNS(C)(=O)=O)CN(C(=O)C1CCCCC1)C2 was -8.993%.
Result for O[C@@H]1C[C@@H](c2nc(Cc3ccccc3)no2)N(Cc2ncc[nH]2)C1 was -3.987%.
Result for CCCC(=O)N(C)c1cc(C#N)c2ccccc2n1 was -8.164%.
Result for COc1cccc(-c2n[nH]cc2-c2nc(CN3CCCC3)no2)c1 was 16.17%.
Result for Cc1ccc2c(c1C)OCC2NCc1ccc(C#N)cc1 (stereo unspecified) was 10%.
Result for COc1cc(CN2CCCC23CCN(c2ccccn2)CC3)ccc1F was 10.66%.
Result for COCCN(Cc1nc2c(cnn2C)c(=O)[nH]1)C(C)COC (stereo unspecified) was -41.03%.
Result for COc1ccc(C(=O)N2CCC(Nc3ccc(C)nn3)CC2)c(F)c1 was -8.671%.
Result for COCCc1noc(CN2CCCC2Cn2nc(C)cc2C)n1 (stereo unspecified) was -0.6003%.
Result for Cc1ccc(OCC(=O)N2CCCC(n3nc(C)nc3C)C2)cc1 (stereo unspecified) was 0.7532%.
Result for O=C(O)C(F)(F)F.O=C([C@H]1CCCO1)N1CC[C@H](O)[C@@H]1Cc1ccncc1 was -5.735%.
Result for N#Cc1ccc(C(=O)N2C[C@@H](CN3CCCC3)C[C@H](CO)C2)cc1 was 6.022%.
Result for CCN(Cc1nccn1C)C(=O)c1ccc(NCc2cnn(C)c2)nc1 was 11.72%.
Result for CC(c1ccon1)N(C)C(=O)C1CCN(C2CCCCC2)CC1 (stereo unspecified) was 0.9855%.
Result for COc1cc(CC(O)CC#N)c(OC)c2c1OCO2 (stereo unspecified) was 21.25% & -7.077%.
Result for CC(C)CC(C)NC1CCN(c2ccc(-c3cscn3)cc2)CC1 (stereo unspecified) was 4.507%.
Result for COc1ccc(CCC(=O)NC2CCC(O)CC2)cc1OC (stereo unspecified) was 10.07%.
Result for CC1CCCN(S(=O)(=O)NCc2ccccc2Cn2cncn2)C1 (stereo unspecified) was -0.808%.
Result for O=C1OC2(CCNCC2)CN1CC(=O)N1CCC1c1cccs1 (stereo unspecified) was -10.6%.
Result for CC(C)c1nc(O)c2nnn(C[C@@H]3CCCN(Cc4ccsc4)C3)c2n1 was -0.5898%.
Result for CN1CCOC(C)(C(=O)N2CCSCC2)C1 (stereo unspecified) was 9.999%.
Result for CN(C)c1ncccc1CNC(=O)N1CCCC1c1cccs1 (stereo unspecified) was 0.9128%.
Result for Cc1nccc(CNC(=O)N2CCN(Cc3ccccc3)C[C@H]2C)n1 was 5.495%.
Result for O=C(NCc1sc2ccccc2c1Cl)c1cc2n(n1)CCNC2 was -10.53%.
Result for CC(C)NC(=O)CCNC(=O)c1cc(F)ccc1NS(C)(=O)=O was -17.6%.
Result for Cc1cc(C)nc(N2CCC(CNC(=O)c3ccccn3)CC2)n1 was -1.61%.
Result for CNC(=O)c1ccc(CNCc2ccc(SC)c(OC)c2)cc1 was -6.049%.
Result for COCCCN(C)C(=O)c1nnn(-c2ccccc2Cl)c1C was 7.162%.
Result for Cc1nnc(N(CCC#N)CCC#N)s1 was -1.617% & 2.453%.
Result for CN(Cc1ccc(-n2ccnc2)cc1)Cc1ncc[nH]1 was -3.69%.

6 of the entries, repeated:

- Cc1nccc(CNC(=O)N2CCN(Cc3ccccc3)C[C@H]2C)n1 : 5.495%
- CC1CCCN(S(=O)(=O)NCc2ccccc2Cn2cncn2)C1 (stereo unspecified) : -0.808%
- Cn1cc(CC(=O)N2CCCC(c3cc(C(F)(F)F)[nH]n3)C2)cn1 (stereo unspecified) : -3.274%
- CNC(=O)c1ccc(CNCc2ccc(SC)c(OC)c2)cc1 : -6.049%
- COc1ccc(OC)c(CNC2CCCN(c3cccnn3)C2)c1 (stereo unspecified) : -5.052%
- O=C(Nc1cccc(OCc2cccc(F)c2)c1)C1COCCO1 (stereo unspecified) : -13.51%